These results are taken from paper PMC7236048.

No constants are given. Whether binding was seen depends on the method and setting. In cells and extracts the contact can be indirect. Some results given as binding are weak or reduced against the parent protein; the word gives no strength.

The test has as its target Cnx6 (UniProt O22827). Kind of test: split reporter; BiFC with YFP N- and C-terminal fragments, Agrobacterium-mediated transient coexpression with p19 in N. benthamiana leaves; confocal microscopy after 48 h (2-3 days).

B1: Cnx6 (protein, UniProt O22827 1-198)
chain: MSAEEKNLIEILEEGHKVDVVKYIDYVSAPQAGAIATFSGTTRDMFEGKTVLELRYEAYVPMATRCLSSICTTARSTWDIHKIAVAHRLGPVPVGETSVLIAVSSVHRADGLDACKFLIDELKASVPIWKKEVYTNGEIWKENSEFMEKRLELAEKRDSIVKKTVVEEHRRRGCCGSKVRVEEDEEHKDITGDNKSSS
On to B1, for which the binding result was “binds”.
